# Paper PMC8982406
# Results are given in words; binding and its absence hold for the method and conditions named. Binding seen in cells or lysates may run through a third protein. Some results given as binding are weak or reduced against the parent protein; the word gives no strength.
# B1: endogenous ZC4H2 (Ptch1+/- MB tissue) (protein, UniProt Q68FG0 1-224)
# chain: MADEQEIMCKLESIKEIRNKTLQMEKIKARLKAEFEALESEERHLKEYKQEMDLLLQEKMAHVEELRLIHADINVMENTIKQSENDLNKLLESTRRLHDEYKPLKEHVDALRMTLGLQRLPDLCEEEEKLSLDYFEKQKAEWQTEPQEPPIPESLAAAAAAAQQLQVARKQDTRQTATFRQQPPPMKACLSCHQQIHRNAPICPLCKAKSRSRNPKKPKRKQDE
# Target: T1, endogenous RLIM (Ptch1+/- MB tissue) (mouse (endogenous in Ptch1+/- MB tissue)) (UniProt Q9WTV7)
# T1 sequence: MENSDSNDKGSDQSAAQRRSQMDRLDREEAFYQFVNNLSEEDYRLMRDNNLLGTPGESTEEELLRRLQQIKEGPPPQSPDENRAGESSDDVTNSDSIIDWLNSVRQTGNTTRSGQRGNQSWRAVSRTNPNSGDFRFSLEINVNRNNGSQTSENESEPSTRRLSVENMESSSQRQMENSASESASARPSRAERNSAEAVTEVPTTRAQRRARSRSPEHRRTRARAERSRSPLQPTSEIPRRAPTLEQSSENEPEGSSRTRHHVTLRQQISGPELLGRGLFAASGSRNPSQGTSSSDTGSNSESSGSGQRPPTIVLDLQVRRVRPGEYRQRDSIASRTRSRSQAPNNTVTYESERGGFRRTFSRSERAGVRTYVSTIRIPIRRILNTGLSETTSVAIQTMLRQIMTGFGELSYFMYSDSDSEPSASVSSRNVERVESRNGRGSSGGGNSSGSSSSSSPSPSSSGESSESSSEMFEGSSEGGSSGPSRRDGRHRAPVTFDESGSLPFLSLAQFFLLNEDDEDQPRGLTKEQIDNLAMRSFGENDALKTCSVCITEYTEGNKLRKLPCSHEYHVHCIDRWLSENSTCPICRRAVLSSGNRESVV
# Assay: co-IP; endogenous RLIM immunoprecipitated with an RLIM antibody from Daoy cell or Ptch1+/- MB tissue lysate; 50 mM Tris-HCl pH 7.4, 150 mM NaCl, 5 mM EDTA, 1% Triton X-100; 4°C, 4 h; western blotting
binder,measurement,value
B1,binding,binds
